Measurements reported in PubChem BioAssay AID504784 (Drosophila RNAi Screening Center, 2011)

- Screen: 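Genome-wide knock-down for genes giving too much or too little stored lipid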 (primary screen)
- Cell system: Drosophila Kc167 embryonic cells
- Knock-down reagent: long dsRNA against Drosophila genes, about 250 ng dsRNA per well
- Time to read-out: 4 days
- Treatment: cells fed 400 µM oleic acid bound to BSA
- Measured: 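Microscope images give a droplet-to-nucleus area ratio, taken as log and converted to a screen-wide B-score; higher values mean greater lipid storage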
- Reading the numbers: droplet/nuclear area B-score: higher = more stored lipid (overstorage)
The deposit covers about 17,000 reagents; below is an unselected part of those that have a named target and a result. 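Each column is one replicate's B-score; the combined score over replicates was not deposited, so single values may mislead.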 Reagents against one gene are numbered here. Names joined by + are all predicted targets of the reagent. Further read-outs or replicates are left out here.

Which result is listed for Mst98Cb (GeneID 43367) #1?
droplet/nuclear area B-score, replicate 1: -0.0903

What is on record for Mst98Cb (GeneID 43367) #2?
droplet/nuclear area B-score, replicate 1: -0.0253

How did the screen score DCTN2-p50 (GeneID 44086)?
droplet/nuclear area B-score, replicate 1: -0.905

For Setd3 (GeneID 31638) #1, what was measured?
droplet/nuclear area B-score, replicate 1: 0.475

For Setd3 (GeneID 31638) #2, what was measured?
droplet/nuclear area B-score, replicate 1: 1.55

How did the screen score Tre1 (GeneID 140439)?
droplet/nuclear area B-score, replicate 1: 1.53

With CG4998 (GeneID 39808) #1, what was measured?
droplet/nuclear area B-score, replicate 1: -1.22

For CG4998 (GeneID 39808) #2, what does the deposit list?
droplet/nuclear area B-score, replicate 1: 0.454

What is on record for CG33768 (GeneID 3771840)?
droplet/nuclear area B-score, replicate 1: 1.31

How did the screen score CG5877 (GeneID 32455)?
droplet/nuclear area B-score, replicate 1: 0.808

For CG32371 (GeneID 317999), how do the results read?
droplet/nuclear area B-score, replicate 1: 1.58

What did the screen give for Pbp45 (GeneID 41920)?
droplet/nuclear area B-score, replicate 1: 1.09

What is on record for Mgat2 (GeneID 43563)?
droplet/nuclear area B-score, replicate 1: -0.0109

For CG11162 (GeneID 32325) #1, what does the deposit list?
droplet/nuclear area B-score, replicate 1: -0.694

Which result is listed for CG11162 (GeneID 32325) #2?
droplet/nuclear area B-score, replicate 1: -0.771

With Rpn6 (GeneID 36638), what was measured?
droplet/nuclear area B-score, replicate 1: 0.241

What did the screen give for CG40298 (GeneID 3355149)?
droplet/nuclear area B-score, replicate 1: 0.409

With CG31122 (GeneID 42221) #1, what was measured?
droplet/nuclear area B-score, replicate 1: -4.67

What did the screen give for CG31122 (GeneID 42221) #2?
droplet/nuclear area B-score, replicate 1: -0.7

What is on record for alpha-Est9 (GeneID 40897)?
droplet/nuclear area B-score, replicate 1: 1.25

Which result is listed for CG32808 (GeneID 318221)?
droplet/nuclear area B-score, replicate 1: -1.52

What did the screen give for wkd (GeneID 41390)?
droplet/nuclear area B-score, replicate 1: -1.28

Which result is listed for Targ2 (GeneID 326246)?
droplet/nuclear area B-score, replicate 1: 0.995

How did the screen score RecQ4 (GeneID 53438)?
droplet/nuclear area B-score, replicate 1: -0.469

For CG17327 (GeneID 41598), how do the results read?
droplet/nuclear area B-score, replicate 1: 2.54

With CG15696 (GeneID 42469), what does the deposit list?
droplet/nuclear area B-score, replicate 1: 0.0223

With CG44153 (GeneID 34341) #1, what was measured?
droplet/nuclear area B-score, replicate 1: -0.765

With CG44153 (GeneID 34341) #2, what does the deposit list?
droplet/nuclear area B-score, replicate 1: 0.663

With CG44153 (GeneID 34341) #3, what was measured?
droplet/nuclear area B-score, replicate 1: -0.523

For CG44153 (GeneID 34341) #4, what does the deposit list?
droplet/nuclear area B-score, replicate 1: -0.465

What is on record for CG5321 (GeneID 32399) #1?
droplet/nuclear area B-score, replicate 1: -0.765

Which result is listed for CG5321 (GeneID 32399) #2?
droplet/nuclear area B-score, replicate 1: 0.721

How did the screen score Sirt7 (GeneID 43433)?
droplet/nuclear area B-score, replicate 1: 0.595

With Lgr4 (GeneID 5740505) #1, what does the deposit list?
droplet/nuclear area B-score, replicate 1: 1.46

Which result is listed for Lgr4 (GeneID 5740505) #2?
droplet/nuclear area B-score, replicate 1: 0.871

What did the screen give for CG42367 (GeneID 318998)?
droplet/nuclear area B-score, replicate 1: 1.18

What did the screen give for CG12426 (GeneID 43342)?
droplet/nuclear area B-score, replicate 1: -0.173

What did the screen give for Or56a (GeneID 37269)?
droplet/nuclear area B-score, replicate 1: -1.18

For Pms2 (GeneID 36705), how do the results read?
droplet/nuclear area B-score, replicate 1: 0.675

With GlyRS (GeneID 39644), what was measured?
droplet/nuclear area B-score, replicate 1: 1.26

For CG15012 (GeneID 38529), how do the results read?
droplet/nuclear area B-score, replicate 1: 0.433

How did the screen score CG2006 + Spase12?
droplet/nuclear area B-score, replicate 1: -0.257

Which result is listed for CG15252 (GeneID 31931)?
droplet/nuclear area B-score, replicate 1: -0.0907

With ogre (GeneID 45382), what was measured?
droplet/nuclear area B-score, replicate 1: -0.422

With Ugt37B1 (GeneID 53584), what was measured?
droplet/nuclear area B-score, replicate 1: -0.328

With CG11060 (GeneID 35641), how do the results read?
droplet/nuclear area B-score, replicate 1: -0.0764

How did the screen score Jheh3 (GeneID 37182)?
droplet/nuclear area B-score, replicate 1: 0.804

With Nlp (GeneID 43560), what was measured?
droplet/nuclear area B-score, replicate 1: -0.231

How did the screen score SecCl (GeneID 39949)?
droplet/nuclear area B-score, replicate 1: -0.316

For CG33459 (GeneID 2768847), what does the deposit list?
droplet/nuclear area B-score, replicate 1: 3.29

What did the screen give for CG14621 (GeneID 33128)?
droplet/nuclear area B-score, replicate 1: -0.62

6 of these entries, set out differently:
{"gene knocked down":"CG33768 (GeneID 3771840)","dsRNA no.":1,"droplet/nuclear area B-score, replicate 1":1.31}
{"gene knocked down":"CG5877 (GeneID 32455)","dsRNA no.":1,"droplet/nuclear area B-score, replicate 1":0.808}
{"gene knocked down":"CG32371 (GeneID 317999)","dsRNA no.":1,"droplet/nuclear area B-score, replicate 1":1.58}
{"gene knocked down":"Pbp45 (GeneID 41920)","dsRNA no.":1,"droplet/nuclear area B-score, replicate 1":1.09}
{"gene knocked down":"Mgat2 (GeneID 43563)","dsRNA no.":1,"droplet/nuclear area B-score, replicate 1":-0.0109}
{"gene knocked down":"CG11162 (GeneID 32325)","dsRNA no.":1,"droplet/nuclear area B-score, replicate 1":-0.694}
